Test results published in article PMC5144071, “Functional characterization of aconitase X as a cis-3-hydroxy-L-proline dehydratase” (Scientific Reports, 2016).
Results are given in words; binding and its absence hold for the method and conditions named.

Target: PaLhpI protein (aconitase X type I, cis-3-hydroxy-L-proline dehydratase) from Pseudomonas aeruginosa PAO1 (Pseudomonas aeruginosa PAO1) (UniProt Q9I485)
Test: SEC; analytic gel filtration, HiLoad 16/60 Superdex 200 pg column, 50 mM Tris-HCl buffer (pH 8.0), high-molecular-weight calibration kit; 67 kDa against 60 kDa by SDS-PAGE; both purified

binding: no binding
B1: PaLhpI protein (aconitase X type I, cis-3-hydroxy-L-proline dehydratase) from Pseudomonas aeruginosa PAO1 (enzyme, UniProt Q9I485 1-580)
chain: MKHAHLIVPRTLVAGSASGELLYAPTGLSFWGGVDPRSAEVIDRHHPLSGRHLHGRLLAIPGGRGSCTGSSVLLELILGGRAPAAILLREPDEILALGAIVAEELFGRSLPIACLGERFDELAAYPWARLADGRLELHRDAPPPLEARPAEALATDAGPRLDAFDQALLAGEHGEAARLAMRIVLRMAALQGAQRLIDIQRAHIDACIYTGPAGLRFAETLRDLGARVRVPTTLNAISVDQRRWREQGVPAALGEPAAALARAYLDMGAQPSFTCAPYLLDDSARAGEQIVWAESNAVLFANSVLGARTNKYADFMDICCALTGRAPLAGCHLDEQRQARVLIEVEDLGSVDDAFYPTLGYLCGLLCDGQIPAIDGLRQRQPDHDALKAFGAALGTSSSVPMFHVIGVTPEAPDLASAFGGRAPRRTLRVGRERLRDAWRELDSAGETRIDLVALGNPHFSASEFAQLAALCHGRRRHPEVALVITSSRQVVAQAEAAGHLATLQAFGARLVTDTCWCMLDEPLVPPGARTLMTNSAKYAHYAPGLVGRQVRFAGLAGCVEAAVGGRSPAGLPAWLSEDC
